In publication PMC5655142, “Anti-diabetic drug binding site in a mammalian KATP channel revealed by Cryo-EM” (eLife, 2017):
No constants are given. Whether binding was seen depends on the method and setting. Binding calls can cover weak binding; strength is not graded here.

Target: T1, rat Kir6.2 (rat) (UniProt P70673)
T1 sequence: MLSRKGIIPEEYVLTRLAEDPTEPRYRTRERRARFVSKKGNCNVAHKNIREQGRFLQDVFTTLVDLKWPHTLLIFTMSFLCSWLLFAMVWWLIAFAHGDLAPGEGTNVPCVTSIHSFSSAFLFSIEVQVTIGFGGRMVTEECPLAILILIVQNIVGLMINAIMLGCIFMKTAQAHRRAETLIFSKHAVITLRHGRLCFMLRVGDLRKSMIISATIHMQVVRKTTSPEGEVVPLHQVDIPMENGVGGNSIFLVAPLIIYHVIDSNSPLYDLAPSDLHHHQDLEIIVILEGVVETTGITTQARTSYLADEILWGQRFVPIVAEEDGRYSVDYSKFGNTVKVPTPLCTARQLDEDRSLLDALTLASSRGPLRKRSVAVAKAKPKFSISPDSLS
Assay: cryo-EM structure; purified SUR1/Kir6.2 KATP channel in digitonin, 1 mM ATP (no Mg2+) and 1 µM glibenclamide; C4 symmetry imposed; 3.63 Å; both purified

FLAG-tagged hamster SUR1
binding: binds
